Data taken from paper PMC3235137.
These are yes or no findings as the source states them, for the method shown. Binding seen in cells or lysates may run through a third protein. A yes stands for co-enrichment or nearness to the bait. Other partners may have been found. Blank lines part the entries; values can stand above or below the binder they belong to.

Amino acid sequences for entries named in this document (tags omitted).
UniProt Q8AYS8: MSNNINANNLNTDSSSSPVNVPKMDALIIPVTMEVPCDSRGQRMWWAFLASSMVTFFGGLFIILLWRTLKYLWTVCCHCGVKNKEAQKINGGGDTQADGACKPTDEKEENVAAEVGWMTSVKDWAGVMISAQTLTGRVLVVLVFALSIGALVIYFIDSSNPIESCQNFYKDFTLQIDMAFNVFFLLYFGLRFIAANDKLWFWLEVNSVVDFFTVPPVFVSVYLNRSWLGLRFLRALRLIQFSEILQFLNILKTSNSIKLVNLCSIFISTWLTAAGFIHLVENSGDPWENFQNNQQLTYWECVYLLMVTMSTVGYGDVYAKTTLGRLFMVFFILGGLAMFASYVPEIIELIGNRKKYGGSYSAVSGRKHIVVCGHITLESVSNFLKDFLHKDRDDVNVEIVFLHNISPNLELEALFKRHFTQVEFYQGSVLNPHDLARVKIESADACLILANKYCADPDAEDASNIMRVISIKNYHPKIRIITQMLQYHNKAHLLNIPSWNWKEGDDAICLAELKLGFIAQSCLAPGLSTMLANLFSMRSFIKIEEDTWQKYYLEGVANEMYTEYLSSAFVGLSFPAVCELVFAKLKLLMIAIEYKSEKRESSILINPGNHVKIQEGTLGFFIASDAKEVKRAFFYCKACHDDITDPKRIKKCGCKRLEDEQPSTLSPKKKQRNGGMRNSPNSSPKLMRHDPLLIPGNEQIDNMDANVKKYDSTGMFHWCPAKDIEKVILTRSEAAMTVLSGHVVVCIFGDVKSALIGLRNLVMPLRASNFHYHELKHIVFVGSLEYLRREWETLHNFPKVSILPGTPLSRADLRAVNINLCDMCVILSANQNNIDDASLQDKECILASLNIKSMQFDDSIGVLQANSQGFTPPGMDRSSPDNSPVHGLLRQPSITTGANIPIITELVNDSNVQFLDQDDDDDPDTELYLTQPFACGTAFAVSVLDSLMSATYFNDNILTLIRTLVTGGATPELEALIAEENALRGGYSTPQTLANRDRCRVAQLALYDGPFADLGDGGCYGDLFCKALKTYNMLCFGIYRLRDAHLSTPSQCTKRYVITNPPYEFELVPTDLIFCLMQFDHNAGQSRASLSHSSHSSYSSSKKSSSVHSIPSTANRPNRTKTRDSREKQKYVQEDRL

Molecular target: large-conductance Ca2+-activated K+ (BK) channel α-subunit (chicken (endogenous in chick cochlea)) (UniProt Q8AYS8)
Assay: affinity purification with mass spectrometry; polyclonal anti-BKα (Chemicon) immunocomplex capture on protein G beads from membrane/cytoskeletal (1% ASB-14) and cytoplasmic fractions of chick cochlea; 2-D gel, LC-MS/MS; controls: irrelevant antibody, unbound beads

B1: heat shock protein (HSP) 60 (protein, UniProt Q5ZL72 27-573)
chain: AKDVKFGADARALMLQGVDLLADAVAVTMGPKGRTVIIEQSWGSPKVTKDGVTVAKAIDLKDKYKNIGAKLVQDVANNTNEEAGDGTTTATVLARAIAKEGFEKISKGANPVEIRRGVMLAVDAITAELKKLSKPVTTPEEIAQVATISANGDQEIGNIISDAMKKVGRKGVITVKDGKTLNDELEIIEGMKFDRGYISPYFINTAKGQKCEFQDAYVLISEKKISSVQSIVPALEIANSHRKPLVIIAEDVDGEALSTLVLNRLKVGLQVVAVKAPGFGDNRKNQLKDMAIATGGAVFGEEGLSLNVEDIQPHDFGKVGEVIVTKDDTMLLKGKGEKAQIEKRIQEIIEQLEVTTSEYEKEKLNERLAKLSDGVAVLKVGGTSDVEVNEKKDRVTDALNATRAAVEEGIVPGGGCALLRCIPALDALKPANEDQKIGIEIIKRTLKIPAMTIAKNAGVEGSLIVEKILQSSSEVGYDAMLGEFVNMVEKGIIDPTKVVRTALMDAAGVASLLSTAEAVVTEVPKEEKEPAMGGMGGMGGGMGGGMF
binding: binds

B3: annexin A5 (protein, UniProt P17153 1-321)
chain: MAKYTRGTVTAFSPFDARADAEALRKAMKGMGTDEETILKILTSRNNAQRQEIASAFKTLFGRDLVDDLKSELTGKFETLMVSLMRPARIFDAHALKHAIKGAGTNEKVLTEILASRTPAEVQNIKQVYMQEYEANLEDKITGETSGHFQRLLVVLLQANRDPDGRVDEALVEKDAQVLFRAGELKWGTDEETFITILGTRSVSHLRRVFDKYMTISGFQIEETIDRETSGDLEKLLLAVVKCIRSVPAYFAETLYYSMKGAGTDDDTLIRVMVSRSEIDLLDIRHEFRKNFAKSLYQMIQKDTSGDYRKALLLLCGGDDE
binding: binds

B5: 14-3-3γ (protein, UniProt Q5F3W6 1-247)
chain: MVDREQLVQKARLAEQAERYDDMAAAMKNVTELNEPLSNEERNLLSVAYKNVVGARRSSWRVISSIEQKTSADGNEKKIEMVRAYREKIEKELGAVCQDVLSLLDNYLIKNCSETQYESKVFYLKMKGDYYRYLAEVATGEKRATVVESSEKAYSEAHEISKEHMQPTHPIRLGLALNYSVFYYEIQNAPEQACHLAKTAFDDAIAELDTLNEDSYKDSTLIMQLLRDNLTLWTSDQQDDDGGEGNN
binding: binds

Further lines, results first:

binding: binds
B2: stathmin (protein, UniProt P31395 1-148)
chain: MATSDIQVKELEKRASGQAFELILGPRSKEAAPEFPLSPPKKKDLSLEEIQKKLEAAEERRKSHEAEVLKQLAEKREHEKEVLQKAIEENNNFSKMAEEKLTHKMEANKENREAQMAAKLERLREKDKHIEEVRKNKEGKDPGEAETN

binding: binds
B4: lin-7 homolog C (protein, UniProt Q5F425 1-197)
chain: MAALGEPVRLERDICRAIELLEKLQRSGEVPPQKLQALQRVLQSEFCNAVREVYEHVYETVDISSSPEVRANATAKATVAAFAASEGHSHPRVVELPKTEEGLGFNIMGGKEQNSPIYISRIIPGGIADRHGGLKRGDQLLSVNGVSVEGEHHEKAVELLKAAQGKVKLVVRYTPKVLEEMESRFEKMRSAKRRQQN

binding: binds
B6: prohibitin (protein, UniProt P84173 1-272)
chain: MAAKVFESIGKFGLGLAVAGGVVNSALYNVDAGHRAVIFDRFRGVQDTVVGEGTHFLIPWVQKPIIFDCRSRPRNIPVITGSKDLQNVNITLRILFRPVTAQLPRIFTSIGEDYDERVLPSITTEILKSVVARFDAGELITQRELVSRQVSEDLTERAATFGLILDDVSLTHLTFGKEFTEAVEMKQVAQQEAERARFIVEKAEQQKKAAVISAEGDSKAAELIANSLATAGDGLIELRKLEAAEDIAYQLSRSRNITYLPSGQSVLLQLPQ
